Measured values published in patent publication US6642355B2, “Endothelin-antagonizing peptide” (priority 1991, dated 2003).
Not every detail of the peptide structures is certain; ends, links or a residue may be inferred. At least one compound was matched to its structure with a doubt left.

How the values were obtained:
endothelin receptor [1] = experiment: Endothelin receptor-antagonizing activity: 125I-endothelin-1 binding to bovine lung membrane fraction; conditions: read-out: concentration (IC50) causing 50% inhibition of endothelin-1 binding, 125I-endothelin-1, 25° C., 2 hours
endothelin receptor [2] = biological target: T1, endothelin receptor (Bos taurus, UniProt P28088); experiment: Endothelin receptor-antagonizing effect: 125I-endothelin-1 binding to bovine cerebellar tissue membrane fraction; conditions: read-out: IC50, concentration causing 50% inhibition of endothelin-1 binding activity
T1 construct: from tissue; host or cells: bovine cerebellar membrane fraction
T1 sequence (P28088 27-441): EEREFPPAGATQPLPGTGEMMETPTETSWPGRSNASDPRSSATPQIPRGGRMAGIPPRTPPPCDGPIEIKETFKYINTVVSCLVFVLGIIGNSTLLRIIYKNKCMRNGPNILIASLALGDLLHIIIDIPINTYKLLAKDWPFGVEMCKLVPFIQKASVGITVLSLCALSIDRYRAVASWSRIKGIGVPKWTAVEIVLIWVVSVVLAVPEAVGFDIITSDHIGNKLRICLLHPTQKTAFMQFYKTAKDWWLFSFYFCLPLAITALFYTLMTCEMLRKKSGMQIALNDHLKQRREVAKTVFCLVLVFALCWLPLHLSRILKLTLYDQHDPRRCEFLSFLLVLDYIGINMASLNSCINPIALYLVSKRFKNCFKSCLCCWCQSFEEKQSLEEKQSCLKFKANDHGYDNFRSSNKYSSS

SMILES	IC50 (endothelin receptor [1])	IC50 (endothelin receptor [2])
C[C@@H]1NC(=O)[C@H]([C@@H](C)O)NC(=O)CNC(=O)[C@H](Cc2c[nH]cn2)NC(=O)[C@H](Cc2c[nH]c3ccccc23)NC(=O)[C@H](CC(N)=O)NC(=O)CNC(=O)C[C@@H](C(=O)N[C@@H](Cc2c[nH]c3ccccc23)C(=O)N[C@@H](Cc2ccccc2)C(=O)N[C@@H](Cc2ccccc2)C(=O)N[C@@H](CC(N)=O)C(=O)N[C@@H](Cc2ccc(O)cc2)C(=O)N[C@@H](Cc2ccc(O)cc2)C(=O)N[C@@H](Cc2c[nH]c3c(O)cccc23)C(=O)O)NC(=O)[C@@H]2CCCN2C1=O [Compound I-2]	55 nM	30 nM
C[C@H](NC(=O)[C@@H](NC(=O)CNC(=O)[C@H](Cc1c[nH]cn1)NC(=O)[C@H](Cc1c[nH]c2ccccc12)NC(=O)[C@H](CC(N)=O)NC(=O)CN)[C@@H](C)O)C(=O)N1CCC[C@H]1C(=O)N[C@@H](CC(=O)O)C(=O)N[C@@H](Cc1c[nH]c2ccccc12)C(=O)N[C@@H](Cc1ccccc1)C(=O)N[C@@H](Cc1ccccc1)C(=O)N[C@@H](CC(N)=O)C(=O)N[C@@H](Cc1ccc(O)cc1)C(=O)N[C@@H](Cc1ccc(O)cc1)C(=O)N[C@@H](Cc1c[nH]c2ccccc12)C(=O)O [Compound I-4]	–	> 5000 nM
